According to PMC10682186:
No constants are given. Whether binding was seen depends on the method and setting. In cells and extracts the contact can be indirect. Some results given as binding are weak or reduced against the parent protein; the word gives no strength.

Sequences of proteins named here, by UniProt entry; tags and fusion partners are left off.
UniProt E9Q7E2: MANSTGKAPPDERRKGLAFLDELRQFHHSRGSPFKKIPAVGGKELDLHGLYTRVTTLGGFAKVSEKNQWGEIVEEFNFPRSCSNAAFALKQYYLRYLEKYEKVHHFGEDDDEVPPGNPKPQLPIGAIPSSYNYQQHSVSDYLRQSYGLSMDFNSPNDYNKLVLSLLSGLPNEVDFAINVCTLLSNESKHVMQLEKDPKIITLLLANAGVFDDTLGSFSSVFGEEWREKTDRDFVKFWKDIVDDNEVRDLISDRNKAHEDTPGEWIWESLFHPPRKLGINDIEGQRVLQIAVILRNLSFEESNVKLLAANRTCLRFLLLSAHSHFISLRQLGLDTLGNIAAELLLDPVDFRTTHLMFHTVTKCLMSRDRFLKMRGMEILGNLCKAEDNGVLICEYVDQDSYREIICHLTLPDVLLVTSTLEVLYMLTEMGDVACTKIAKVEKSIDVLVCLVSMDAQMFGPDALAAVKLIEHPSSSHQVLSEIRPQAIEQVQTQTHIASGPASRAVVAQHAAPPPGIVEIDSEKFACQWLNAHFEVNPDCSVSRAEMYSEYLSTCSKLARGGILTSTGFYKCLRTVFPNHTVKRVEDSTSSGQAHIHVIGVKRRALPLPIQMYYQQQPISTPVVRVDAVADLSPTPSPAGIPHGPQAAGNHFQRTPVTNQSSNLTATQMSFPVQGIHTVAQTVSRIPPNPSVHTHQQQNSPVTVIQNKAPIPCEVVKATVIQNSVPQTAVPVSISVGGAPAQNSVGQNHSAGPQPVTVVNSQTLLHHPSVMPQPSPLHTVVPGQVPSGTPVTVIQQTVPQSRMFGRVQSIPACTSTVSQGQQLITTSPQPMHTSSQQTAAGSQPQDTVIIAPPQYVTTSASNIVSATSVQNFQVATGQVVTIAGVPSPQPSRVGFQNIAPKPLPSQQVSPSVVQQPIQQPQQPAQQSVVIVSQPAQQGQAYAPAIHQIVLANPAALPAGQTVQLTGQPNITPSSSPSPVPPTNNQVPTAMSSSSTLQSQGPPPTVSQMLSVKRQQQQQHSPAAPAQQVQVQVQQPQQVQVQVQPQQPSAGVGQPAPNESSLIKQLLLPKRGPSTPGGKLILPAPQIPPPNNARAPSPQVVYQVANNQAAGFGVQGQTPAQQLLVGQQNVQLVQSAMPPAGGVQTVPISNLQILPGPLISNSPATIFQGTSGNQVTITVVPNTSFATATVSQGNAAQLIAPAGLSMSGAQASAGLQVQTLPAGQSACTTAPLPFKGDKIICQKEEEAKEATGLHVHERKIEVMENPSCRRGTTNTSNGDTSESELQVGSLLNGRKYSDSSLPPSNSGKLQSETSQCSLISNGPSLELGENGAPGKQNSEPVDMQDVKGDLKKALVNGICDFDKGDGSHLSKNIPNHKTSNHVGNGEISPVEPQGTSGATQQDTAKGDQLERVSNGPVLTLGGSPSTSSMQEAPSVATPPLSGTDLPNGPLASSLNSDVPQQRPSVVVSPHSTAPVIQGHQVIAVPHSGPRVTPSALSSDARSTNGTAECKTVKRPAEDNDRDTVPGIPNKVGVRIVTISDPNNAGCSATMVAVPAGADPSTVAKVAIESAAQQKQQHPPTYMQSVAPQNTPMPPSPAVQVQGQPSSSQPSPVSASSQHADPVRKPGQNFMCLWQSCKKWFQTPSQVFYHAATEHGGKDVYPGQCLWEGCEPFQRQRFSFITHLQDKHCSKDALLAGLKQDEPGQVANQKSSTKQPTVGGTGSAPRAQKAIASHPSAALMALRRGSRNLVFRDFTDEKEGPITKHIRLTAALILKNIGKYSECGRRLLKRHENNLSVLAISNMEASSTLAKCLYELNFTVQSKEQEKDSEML

Legend:
[1] = molecular target: T1, PHF10A isoform of PHF10 (mouse (endogenous in brain)) (UniProt Q9D8M7); experiment: co-IP; the same anti-PHF10 immunoaffinity-purified complexes (PBAF and dcPBAF from P1 and P56 brain nuclear extracts after MonoS and Superose 6), BAF200 detected by Western blot
T1 sequence: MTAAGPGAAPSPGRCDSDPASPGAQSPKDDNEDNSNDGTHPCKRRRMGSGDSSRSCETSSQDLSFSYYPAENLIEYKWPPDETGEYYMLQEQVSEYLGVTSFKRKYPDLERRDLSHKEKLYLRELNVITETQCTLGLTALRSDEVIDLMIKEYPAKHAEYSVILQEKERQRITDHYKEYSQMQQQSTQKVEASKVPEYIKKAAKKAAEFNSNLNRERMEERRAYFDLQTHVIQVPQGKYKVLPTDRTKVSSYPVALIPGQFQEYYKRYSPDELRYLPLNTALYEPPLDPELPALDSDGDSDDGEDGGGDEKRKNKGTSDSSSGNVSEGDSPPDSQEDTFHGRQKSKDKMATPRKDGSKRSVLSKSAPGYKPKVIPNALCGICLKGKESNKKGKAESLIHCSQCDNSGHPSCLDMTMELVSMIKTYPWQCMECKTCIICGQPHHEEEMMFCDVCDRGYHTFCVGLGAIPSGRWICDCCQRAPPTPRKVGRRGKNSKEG

[2] = molecular target: T1, PHF10A isoform of PHF10 (mouse (endogenous in brain)); experiment: co-IP; co-immunoprecipitation from P1 and P56 mouse brain extracts with antibodies against PHF10 and, reciprocally, against BRD7 (Supplementary Figure S3); methods not shown
[3] = molecular target: T2, BRD7 (mouse (endogenous in brain)) (UniProt O88665); experiment: as above
T2 sequence: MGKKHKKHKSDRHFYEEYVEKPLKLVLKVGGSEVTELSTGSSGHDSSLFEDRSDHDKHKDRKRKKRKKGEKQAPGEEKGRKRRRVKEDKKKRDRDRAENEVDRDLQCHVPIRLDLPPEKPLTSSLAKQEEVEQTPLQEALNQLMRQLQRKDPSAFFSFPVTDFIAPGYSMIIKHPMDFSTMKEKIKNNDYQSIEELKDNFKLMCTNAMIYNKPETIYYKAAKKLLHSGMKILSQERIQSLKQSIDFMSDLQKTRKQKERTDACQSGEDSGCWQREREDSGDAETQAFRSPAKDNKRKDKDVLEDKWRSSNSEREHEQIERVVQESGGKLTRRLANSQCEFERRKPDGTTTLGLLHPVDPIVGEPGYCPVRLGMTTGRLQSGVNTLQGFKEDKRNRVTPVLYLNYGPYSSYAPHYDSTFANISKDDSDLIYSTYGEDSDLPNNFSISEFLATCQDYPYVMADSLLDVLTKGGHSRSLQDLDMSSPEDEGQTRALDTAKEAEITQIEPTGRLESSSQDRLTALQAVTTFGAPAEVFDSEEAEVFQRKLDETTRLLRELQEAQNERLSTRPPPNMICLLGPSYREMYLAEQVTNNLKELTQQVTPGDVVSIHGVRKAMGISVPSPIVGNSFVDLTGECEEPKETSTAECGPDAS

BAF200/ARID2 (from UniProt E9Q7E2 1-1828)
binding [1]: binds

B1: BRD7 (protein, UniProt O88665 1-651)
chain: T2 sequence
binding [2]: binds

B2: PHF10A isoform of PHF10 (protein, UniProt Q9D8M7 1-497)
chain: T1 sequence
binding [3]: binds
